Experiment [1] concerns SARS-CoV-2 -1 PRF reporter mCherry-FSE-GFP(-1). Put plainly: mCherry (red) intensity as percent of control; higher = higher upstream reporter expression. The settings on record: 10 µM; 24 h; HEK293T.
Experiment [2] has the same test system. Put plainly: percent effect, decrease of GFP/mCherry ratio (-1 PRF reporter) relative to controls; higher = stronger frameshift inhibition. The settings on record: 10 µM; 24 h; HEK293T.

Molecules are shown by their SMILES. Values joined by “and” are separate entries in the source; they are usually repeats but may differ in a detail not shown here. Equal entries are not always repeated. The list shows a part of the results. Single values are uncertain here, since repeats match poorly.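 HEK293T cells were given each compound shortly before transfection with a reporter in which red mCherry is followed by the SARS-CoV-2 frameshift element and then GFP in the −1 frame, so GFP appears only after frameshifting.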

As to `C[C@@H]1C(=O)NC2=Nc3cccc(Cl)c3CN21` [quazinone], in experiment [1], the mCherry came out at 104%. In addition, in experiment [2], the percent effect is -3.11%.
For `COc1ccnc(C[S+]([O-])c2nc3cc(OC(F)F)ccc3[nH]2)c1OC` (centres undefined) the same measures were 87.6% and 0.323%.
For `CCOC(=O)C1=C[C@@H](OC(CC)CC)[C@H](NC(C)=O)[C@@H](N)C1` [oseltamivir], in that order: 72.1% and -4.82%.
For `C/C(=C(\CCOP(=O)(O)O)SC(=O)c1ccccc1)N(C=O)Cc1cnc(C)nc1N` [benfotiamine], in that order: 98.9% and -0.417%.
Take `CCC1NC(=O)c2cc(S(N)(=O)=O)c(Cl)cc2N1` (centres undefined) [quinethazone]: in experiment [1], the mCherry is 87.7%. In addition, the percent effect in experiment [2] is 0.533%.
For `CCC(C)OC(=O)N1CCCCC1CCO` (centres undefined) [icaridin] the same measures were 84% and 0.694%.
In experiment [1], `CN(C)CCc1c[nH]c2ccc(C[C@H]3COC(=O)N3)cc12` [Zolmitriptan] displayed a mCherry of 96.7%. Besides, the percent effect in experiment [2] amounted to 0.619%.
For `O=C1Nc2ccc(Cl)cc2[C@@](C#CC2CC2)(C(F)(F)F)O1` [efavirenz], in that order: 90.8% and -3.81%.
`CN(CCCCCCCCCCN(C)C(=O)Oc1cccc([N+](C)(C)C)c1)C(=O)Oc1cccc([N+](C)(C)C)c1` [Humorsol]: the mCherry in experiment [1] was 98%. For the same compound, the percent effect in experiment [2] is -1.32%.
Turning to `CC[C@@H]1C(=O)OC[C@@H]1Cc1cncn1C`, the mCherry in experiment [1] came to 118%. Further, in experiment [2], the percent effect is -5.24%.
`COC(=O)C1=C(C#N)NC(C)=C(C(=O)OC(C)C)C1c1cccc([N+](=O)[O-])c1` (centres undefined) [nilvadipine] came in with a mCherry in experiment [1] of 105%. In addition, the percent effect in experiment [2] was -0.731%.
For `CCC(=O)O[C@]1(C(=O)CCl)[C@@H](C)C[C@H]2[C@@H]3C[C@H](F)C4=CC(=O)C=C[C@]4(C)[C@@]3(F)[C@@H](O)C[C@@]21C` [Ultravate] the same measures were 106% and -2.28%.
For `Cc1ccc(C(=O)c2cc(O)c(O)c([N+](=O)[O-])c2)cc1` [tolcapone], in that order: 85.8% and -0.0452%.
For `C[C@]12CC[C@@H]3c4ccc(OC(=O)c5ccccc5)cc4CC[C@H]3[C@@H]1CC[C@@H]2O` [estradiol benzoate] the same measures were 106% and -1.98%.
As for `CCC(=O)Oc1ccc2c(c1)CC[C@@H]1[C@@H]2CC[C@]2(C)[C@@H](OC(=O)CC)CC[C@@H]12`, the mCherry in experiment [1] is 106%. Moreover, the percent effect in experiment [2] is -2.7%.
As to `CCCCC(CC)CN1CN(CC(CC)CCCC)CC(C)(N)C1` (centres undefined) [hexetidine], the mCherry in experiment [1] stood at 132%. In experiment [2], the percent effect was determined as 2.66%.
For `CCCc1nn(C)c2c(=O)[nH]c(-c3cc(S(=O)(=O)N4CCN(C)CC4)ccc3OCC)nc12` [sildenafil] the same measures were 104% and -6.72%.
`O=C(O)c1cccc(/C=C2/C[C@@H]3[C@@H](/C=C/[C@@H](O)C4CCCCC4)[C@H](O)C[C@@H]3O2)c1` [taprostene] displayed a mCherry in experiment [1] of 75.2%. The percent effect in experiment [2] was -3.72%.
For `CC(=O)c1ccc(S(=O)(=O)NC(=O)NC2CCCCC2)cc1` [acetohexamide], in that order: 112% and 0.43%.
For `COc1ccc(CN(CCN(C)C)c2ncccn2)cc1` [thonzylamine] the same measures were 108% and 1.49%.
For `Cc1ccccc1OCC(O)CN1CC=CCC1` (centres undefined) [tolpronine] the same measures were 98.4% and -0.859%.
`CC(C)=C/C(C)=N/Nc1nncc2ccccc12` [budralazine] returned a mCherry in experiment [1] of 78.6%. The percent effect in experiment [2] turned out to be 1.75%.
For `CC(=O)Nc1ccc(S(=O)(=O)Nc2ccc([N+](=O)[O-])cc2)cc1` [sulfanitran] the same measures were 101% and -3.9%.
For `CC1=C(C(=O)O)N2C(=O)[C@@H](NC(=O)[C@H](N)c3ccccc3)[C@H]2SC1` [cefalexin], in that order: 121% and -0.458%.
As for `O=C1c2ccccc2C(=O)C1c1ccc(Br)cc1` [bromindione], the mCherry in experiment [1] worked out at 88.5%. In experiment [2], the percent effect worked out at 0.832%.
In turn, `O=P(O)(O)C(Cl)(Cl)P(=O)(O)O` [clodronic acid] gave a mCherry in experiment [1] of 121%. Also, the percent effect in experiment [2] was -3.68%.
Turning to `CC1(C)Oc2ccc(C#N)cc2[C@H](N2CCCC2=O)[C@H]1O` [cromakalim], in experiment [1], the mCherry is 99.5%. In addition, the percent effect in experiment [2] is -3.61%.
With `CC(C)c1ccc2oc3nc(N)c(C(=O)O)cc3c(=O)c2c1` [amlexanox], the mCherry in experiment [1] was found to be 117%. For the same compound, the percent effect in experiment [2] was determined as 1.49%.
For `CN(C)CCC(c1ccc(Br)cc1)c1ccccn1` (centres undefined) [brompheniramine] the same measures were 84.8% and -5.62%.
Consider `CC(=O)NC[C@H]1CN(c2ccc(N3CCOCC3)c(F)c2)C(=O)O1` [linezolid], for which the mCherry in experiment [1] is 100% and 102%. Besides, the percent effect in experiment [2] is 3.58% and -8.02%.
For `CCC[C@@H]1C[C@@H](C(=O)N[C@@H]([C@H]2O[C@H](SC)[C@H](O)[C@@H](O)[C@H]2O)[C@H](C)Cl)N(C)C1` [Cleocin], the mCherry in experiment [1] was 134% and 128%. Besides, in experiment [2], the percent effect is -1.77% and -0.819%.
Take `CCCCCCCC(=O)O` [octanoic acid]: the mCherry in experiment [1] amounted to 116%. Further, the percent effect in experiment [2] is -2.31%.
For `C/C=C/C(=O)N(CC)C(CC)C(=O)N(C)C` (centres undefined) [crotetamide], in that order: 92.4% and 3.78%.
Consider `NS(=O)(=O)c1ccc(NCS(=O)(=O)O)cc1` [mesulfamide], for which, in experiment [1], the mCherry was 101%. In addition, the percent effect in experiment [2] was -3.57%.
For `O=C(CCn1cnc2c(=O)[nH]cnc21)Nc1ccc(C(=O)O)cc1` [leteprinim], in that order: 120% and -4.04%.
For `CCOC(=O)COc1ccc2c(=O)cc(-c3ccccc3)oc2c1` [efloxate], in that order: 93.1% and 2.23%.
`Cc1[nH]cnc1-c1ccc(Cl)cc1` [lofemizole] came in with a mCherry in experiment [1] of 96.5%. Further, the percent effect in experiment [2] was -7.45%.
For `CN(C)CCOC(=O)COc1ccc(Cl)cc1` [meclofenoxate] the same measures were 90.2% and -5.48%.
For `CC(C)NCC(O)COc1ccc(CCOCC2CC2)cc1` (centres undefined) the same measures were 101% and -12.3%.
Take `C[C@@H]1C/C=C/C=C/C=C/C=C/[C@H](O[C@@H]2O[C@H](C)[C@@H](O)[C@H](N)[C@@H]2O)C[C@@H]2O[C@](O)(C[C@@H](O)C[C@H]3O[C@@H]3/C=C/C(=O)O1)C[C@H](O)[C@H]2C(=O)O` [Natamycin]: the mCherry in experiment [1] came out at 83.5%. Further, the percent effect in experiment [2] was -4.16%.
`O=C(O)c1cc(=O)c2ccccc2o1` [chromocarb] yielded a mCherry in experiment [1] of 79%. Further, the percent effect in experiment [2] is -1.99%.
For `CCCCC(O)c1ccccc1` (centres undefined) [fenipentol] the same measures were 109% and 0.982%.
In experiment [1], `NCC(O)CC(=O)O` (centres undefined) had a mCherry of 105%. In addition, the percent effect in experiment [2] was -0.894%.
`NC(=O)C[C@H](N)C(=O)O` [L-Asparagine] yielded a mCherry in experiment [1] of 25.5%. In addition, in experiment [2], the percent effect was -5.19%.
For `CN1CCC(=C2c3ccccc3CCc3sccc32)CC1` [pizotifen], in that order: 107% and -0.45%.
For `CC(C)NC[C@H](O)COc1ccc(CCOCC2CC2)cc1` [levobetaxolol] the same measures were 76.8% and 0.193%.
For `Oc1ccc2c(c1)CC[C@H](c1ccccc1)[C@@H]2c1ccc(OCCN2CCCC2)cc1` [lasofoxifene] the same measures were 35% and -9.44%.
Compound `CCCNC(C)C(=O)Nc1c(C)csc1C(=O)OC` (centres undefined) [articaine] gave a mCherry in experiment [1] of 97.5%. Further, the percent effect in experiment [2] was -4.58%.
The compound `CNc1cc(OC)c(C(=O)NC2CCN(Cc3ccccc3)C2C)cc1Cl` (centres undefined) [nemonapride] returned a mCherry in experiment [1] of 90.3%. Moreover, the percent effect in experiment [2] was 0.39%.
For `CSCC[C@H](NC(=O)[C@H](Cc1c[nH]c2ccccc12)NC(=O)CCNC(=O)OC(C)(C)C)C(=O)N[C@@H](CC(=O)O)C(=O)N[C@@H](Cc1ccccc1)C(N)=O` [pentagastrin], in that order: 80.9% and -9.33%.
Turning to `COC(=O)c1ccc(=O)c2nc3c(=CO)c(O)cc(=O)c3[nH]c12` [Lomofungin], the mCherry in experiment [1] was 87%. In experiment [2], the percent effect was found to be 2.28%.
Consider `CC(C)(C)NC[C@H](O)COc1cccc2c1CCCC2=O` [levobunolol], for which the mCherry in experiment [1] is 111% and 95.2%. Also, the percent effect in experiment [2] was -2.53% and -3.25%.

Source of the values: the supplement of paper PMC8256030.
